No constants are given. Whether binding was seen depends on the method and setting. For part of these data: Binding calls can cover weak binding; strength is not graded here. For part of these data: Binding seen in cells or lysates may run through a third protein. For part of these data: Tags and fused reporters may be left off the sequences shown. Each block holds one molecule with its values, some of them ahead of it.
Legend:
[1] = biological target: BD-OCP (oryzain alpha chain precursor, full length, in pGBKT7) (rice (Oryza sativa)) (UniProt P25776); assay: two-hybrid; directed test in yeast strain Gold Y2H: pGBKT7 (BD) bait and pGADT7 (AD) prey; growth on SD/-Ade-His-Leu-Trp with X-alpha-gal, 30°C
[2] = biological target: BD-OCP-2 (OCP 111-348 aa, in pGBKT7) (rice (Oryza sativa)) (UniProt P25776); assay: as above
[3] = biological target: BD-OCP-4 (OCP 1-348 aa, in pGBKT7) (rice (Oryza sativa)) (UniProt P25776); assay: as above
[4] = biological target: T1, BD-OsSNAP32 (CDS of OsSNAP32 in pGBKT7) (rice (Oryza sativa)) (UniProt Q0E1I7); assay: as above
T1 sequence: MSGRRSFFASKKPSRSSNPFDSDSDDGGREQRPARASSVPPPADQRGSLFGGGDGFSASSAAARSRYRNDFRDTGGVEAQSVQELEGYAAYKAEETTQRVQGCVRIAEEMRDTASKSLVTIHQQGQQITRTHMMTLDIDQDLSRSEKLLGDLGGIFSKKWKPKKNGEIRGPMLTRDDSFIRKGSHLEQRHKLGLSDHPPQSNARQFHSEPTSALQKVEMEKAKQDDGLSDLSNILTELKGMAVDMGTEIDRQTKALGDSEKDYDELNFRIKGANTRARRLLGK

By UniProt entry, the sequences of proteins in these tests, tags left out. Where a name states a change or a piece, a line headed by the entry shows the natural chain unless it says otherwise. Residues count along the entry.
UniProt P25776: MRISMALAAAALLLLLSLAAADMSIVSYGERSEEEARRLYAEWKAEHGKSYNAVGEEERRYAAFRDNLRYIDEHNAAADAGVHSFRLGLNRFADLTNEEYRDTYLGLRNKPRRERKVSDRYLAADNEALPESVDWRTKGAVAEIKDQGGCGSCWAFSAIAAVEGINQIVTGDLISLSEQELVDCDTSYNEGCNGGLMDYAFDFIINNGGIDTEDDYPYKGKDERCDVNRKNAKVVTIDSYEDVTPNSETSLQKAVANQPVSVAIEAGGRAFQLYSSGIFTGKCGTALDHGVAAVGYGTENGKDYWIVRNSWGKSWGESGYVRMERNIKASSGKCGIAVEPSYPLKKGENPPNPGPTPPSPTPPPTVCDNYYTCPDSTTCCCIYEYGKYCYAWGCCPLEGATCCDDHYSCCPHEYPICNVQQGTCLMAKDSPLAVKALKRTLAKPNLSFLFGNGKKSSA
BD-OCP-4 (OCP 1-348 aa, in pGBKT7) (rice (Oryza sativa)): residues 1-348 of P25776
BD-OCP-2 (OCP 111-348 aa, in pGBKT7) (rice (Oryza sativa)): residues 111-348 of P25776
UniProt P49027: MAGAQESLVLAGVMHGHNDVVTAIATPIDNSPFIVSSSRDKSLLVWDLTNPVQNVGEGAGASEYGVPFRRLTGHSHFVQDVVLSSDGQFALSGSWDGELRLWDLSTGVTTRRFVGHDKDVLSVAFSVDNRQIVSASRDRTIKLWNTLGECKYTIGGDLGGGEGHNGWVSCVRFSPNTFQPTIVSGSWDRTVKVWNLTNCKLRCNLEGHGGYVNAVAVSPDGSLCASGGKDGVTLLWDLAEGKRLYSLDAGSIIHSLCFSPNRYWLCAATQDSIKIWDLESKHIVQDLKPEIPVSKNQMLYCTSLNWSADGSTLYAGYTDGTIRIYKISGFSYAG

[5] = biological target: T2, pBridge-OsSNAP32 (coding region of OsSNAP32 in MCS1 of pBridge, alone or with OCP in MCS2) (rice (Oryza sativa)) (UniProt Q0E1I7); assay: yeast three-hybrid; pBridge with OsSNAP32 in MCS1 and/or OCP in MCS2, co-transformed with AD-OsRACK1A into Gold Y2H; growth on SD/-Ade-His-Leu-Met-Trp with X-alpha-gal, 30°C
T2 sequence: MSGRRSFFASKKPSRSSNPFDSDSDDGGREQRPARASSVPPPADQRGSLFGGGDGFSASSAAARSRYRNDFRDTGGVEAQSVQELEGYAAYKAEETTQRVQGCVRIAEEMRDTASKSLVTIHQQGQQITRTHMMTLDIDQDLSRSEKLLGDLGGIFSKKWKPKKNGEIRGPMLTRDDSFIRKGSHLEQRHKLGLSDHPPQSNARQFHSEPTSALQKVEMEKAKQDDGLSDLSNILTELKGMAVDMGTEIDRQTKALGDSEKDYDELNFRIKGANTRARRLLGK

[6] = biological target: OCP-Myc (rice (Oryza sativa)) (UniProt P25776); assay: co-IP; OCP-Myc co-expressed with mCherry fusions in rice protoplasts; lysate (50 mM Tris-HCl pH 7.5, 150 mM NaCl, 0.5% Triton X-100, 0.5% NP-40) incubated with Myc tag-Nanoab-Agarose Beads 2 h at 4°C; blot with anti-Myc and anti-mCherry
[7] = biological target: cYFP-OCP (full-length coding region of OCP in pVYCE) (rice (Oryza sativa)) (UniProt P25776); assay: split reporter; BiFC: cYFP-OCP with nYFP fusions in N. benthamiana leaves by Agrobacterium infiltration; fluorescence read after 3 or 4 days

binding [1]: binds
binding [2]: binds
binding [3]: binds
binding [4]: no binding
binding [5]: no binding
Molecule: AD-OsRACK1A (receptor for activated C kinase 1, full-length coding region in pGADT7) (from UniProt P49027)

binding [6]: binds
Molecule: OsRACK1A-mCherry (from UniProt P49027)

binding [7]: binds
Molecule: nYFP-OsRACK1A (in pVYNE) (from UniProt P49027)

binding [7]: binds
B1: nYFP-OsSNAP32 (in pVYNE) (protein, UniProt Q0E1I7 1-283)
chain: MSGRRSFFASKKPSRSSNPFDSDSDDGGREQRPARASSVPPPADQRGSLFGGGDGFSASSAAARSRYRNDFRDTGGVEAQSVQELEGYAAYKAEETTQRVQGCVRIAEEMRDTASKSLVTIHQQGQQITRTHMMTLDIDQDLSRSEKLLGDLGGIFSKKWKPKKNGEIRGPMLTRDDSFIRKGSHLEQRHKLGLSDHPPQSNARQFHSEPTSALQKVEMEKAKQDDGLSDLSNILTELKGMAVDMGTEIDRQTKALGDSEKDYDELNFRIKGANTRARRLLGK

binding [6]: binds
B2: OsSNAP32-mCherry (protein, UniProt Q0E1I7 1-283)
chain: MSGRRSFFASKKPSRSSNPFDSDSDDGGREQRPARASSVPPPADQRGSLFGGGDGFSASSAAARSRYRNDFRDTGGVEAQSVQELEGYAAYKAEETTQRVQGCVRIAEEMRDTASKSLVTIHQQGQQITRTHMMTLDIDQDLSRSEKLLGDLGGIFSKKWKPKKNGEIRGPMLTRDDSFIRKGSHLEQRHKLGLSDHPPQSNARQFHSEPTSALQKVEMEKAKQDDGLSDLSNILTELKGMAVDMGTEIDRQTKALGDSEKDYDELNFRIKGANTRARRLLGK
